Laboratory results from the supplement of paper PMC6078165.

Tested on: MDAMB436
Assay: relative JC-1 red fluorescence (viability) vs pre-drug, coculture with fibroblast (fraction); higher = more viable cancer cells
Method: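 JC-1 labelled TNBC cells cocultured 1:1 (1,500 cells each) with CellTrace Violet stained primary or stromal fibroblasts in 384-well plates in FluoroBrite medium, treated with one of 42 anticancer drugs at 0.1, 1, 10 or 100 uM. JC-1 red fluorescence (mitochondrial integrity in cancer cells only) was read by plate reader every 8 h for 72 h. Values are normalised to each well's pre-drug value. The stock of one drug was tenfold lower, so its dose labels may be too high.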

CC[C@]1(O)C[C@H]2CN(CCc3c([nH]c4ccccc34)[C@@](C(=O)OC)(c3cc4c(cc3OC)N(C=O)[C@H]3[C@@](O)(C(=O)OC)[C@H](OC(C)=O)[C@]5(CC)C=CCN6CC[C@]43[C@@H]65)C2)C1 [Vincristine]
relative JC-1 red fluorescence
Settings | 8 h | 16 h | 24 h | 32 h | 40 h | 48 h | 56 h | 64 h | 72 h
0.1 µM, coculture fibroblast: C12385 | 0.7719 | 0.724 | 0.725 | 0.66 | 0.638 | 0.63 | 0.63 | 0.63 | 0.651
0.1 µM, coculture fibroblast: H6013 | 0.7927 | 0.767 | 0.76 | 0.768 | 0.777 | 0.826 | 0.824 | 0.846 | 0.842
0.1 µM, coculture fibroblast: H6019 | 0.828 | 0.781 | 0.774 | 0.738 | 0.723 | 0.709 | 0.706 | 0.687 | 0.674
0.1 µM, coculture fibroblast: H6076 | 0.711 | 0.686 | 0.7282 | 0.738 | 0.78 | 0.794 | 0.868 | 0.897 | 0.928
0.1 µM, coculture fibroblast: H6231 | 0.674 | 0.662 | 0.714 | 0.651 | 0.676 | 0.653 | 0.669 | 0.671 | 0.675
0.1 µM, coculture fibroblast: HADF | 0.781 | 0.761 | 0.75 | 0.732 | 0.743 | 0.7804 | 0.73645 | 0.7461 | 0.732
0.1 µM, coculture fibroblast: HCFa | 0.8 | 0.782 | 0.783 | 0.779 | 0.774 | 0.802 | 0.76 | 0.761 | 0.715
0.1 µM, coculture fibroblast: HCPF | 0.769 | 0.752 | 0.767 | 0.726 | 0.741 | 0.7202 | 0.718 | 0.72 | 0.727
0.1 µM, coculture fibroblast: HHSteC | 0.841 | 0.867 | 0.879 | 0.878 | 0.799 | 0.861 | 0.7863 | 0.814 | 0.86
0.1 µM, coculture fibroblast: HMF | 0.718 | 0.703 | 0.717 | 0.689 | 0.711 | 0.707 | 0.75 | 0.754 | 0.766
0.1 µM, coculture fibroblast: HPFa | 0.87 | 0.875 | 0.883 | 0.883 | 0.895 | 0.826 | 0.886 | 0.887 | 0.851
0.1 µM, coculture fibroblast: HUF | 0.8088 | 0.7552 | 0.7438 | 0.6849 | 0.6479 | 0.64 | 0.625 | 0.627 | 0.63
0.1 µM, coculture fibroblast: Hs5 | 0.759 | 0.762 | 0.805 | 0.791 | 0.819 | 0.806 | 0.876 | 0.871 | 0.898
0.1 µM, coculture fibroblast: Hs27A | 0.7988 | 0.779 | 0.789 | 0.797 | 0.82 | 0.91 | 0.858 | 0.88 | 0.839
0.1 µM, coculture fibroblast: Hs343T | 0.707 | 0.68 | 0.67494 | 0.65881 | 0.674 | 0.66008 | 0.69 | 0.6967 | 0.705
0.1 µM, coculture fibroblast: WS1 | 0.79194 | 0.7364 | 0.7254 | 0.66202 | 0.6409 | 0.6208 | 0.6271 | 0.6219 | 0.6261
1 µM, coculture fibroblast: C12385 | 0.7964 | 0.7104 | 0.6647 | 0.603 | 0.558 | 0.542 | 0.523 | 0.501 | 0.505
1 µM, coculture fibroblast: H6013 | 0.857 | 0.814 | 0.778 | 0.779 | 0.764 | 0.783 | 0.77 | 0.774 | 0.751
1 µM, coculture fibroblast: H6019 | 0.7743 | 0.69603 | 0.684 | 0.6408 | 0.625 | 0.6365 | 0.632 | 0.634 | 0.634
1 µM, coculture fibroblast: H6076 | 0.794 | 0.713 | 0.703 | 0.6788 | 0.676 | 0.663 | 0.681 | 0.697 | 0.716
1 µM, coculture fibroblast: H6231 | 0.816 | 0.751 | 0.696 | 0.662 | 0.627 | 0.595 | 0.577 | 0.553 | 0.533
1 µM, coculture fibroblast: HADF | 0.87 | 0.827 | 0.82 | 0.81 | 0.797 | 0.81 | 0.773 | 0.773 | 0.744
1 µM, coculture fibroblast: HCFa | 0.7895 | 0.718 | 0.679 | 0.64 | 0.614 | 0.62 | 0.571 | 0.558 | 0.51
1 µM, coculture fibroblast: HCPF | 0.807 | 0.735 | 0.708 | 0.67 | 0.657 | 0.631 | 0.608 | 0.598 | 0.584
1 µM, coculture fibroblast: HHSteC | 0.8632 | 0.841 | 0.782 | 0.763 | 0.753 | 0.772 | 0.72 | 0.712 | 0.664
1 µM, coculture fibroblast: HMF | 0.792 | 0.693 | 0.64009 | 0.612 | 0.591 | 0.562 | 0.56 | 0.546 | 0.539
1 µM, coculture fibroblast: HPFa | 0.8663 | 0.825 | 0.77 | 0.748 | 0.736 | 0.762 | 0.7 | 0.7 | 0.647
1 µM, coculture fibroblast: HUF | 0.883 | 0.79 | 0.781 | 0.72 | 0.666 | 0.637 | 0.608 | 0.596 | 0.592
1 µM, coculture fibroblast: Hs5 | 0.82 | 0.754 | 0.7255 | 0.669 | 0.661 | 0.622 | 0.643 | 0.622 | 0.624
1 µM, coculture fibroblast: Hs27A | 0.838 | 0.801 | 0.7753 | 0.7416 | 0.7299 | 0.733 | 0.701 | 0.688 | 0.641
1 µM, coculture fibroblast: Hs343T | 0.8 | 0.713 | 0.655 | 0.632 | 0.601 | 0.569 | 0.56 | 0.538 | 0.526
1 µM, coculture fibroblast: WS1 | 0.804 | 0.716 | 0.6554 | 0.5861 | 0.5396 | 0.522 | 0.494 | 0.469 | 0.459

Values are relative to the signal before dosing, not to a vehicle control; the signal also falls without drug.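 Fibroblast labels denote human fibroblasts, mainly primary ones from uterus (C12385, HUF), lung (H6013), bone (Hs27A), adrenal (HADF) and skin (WS1), plus mammary HMF and breast cancer-associated Hs343T. Cancer cells are basal-like or mesenchymal-like triple-negative breast cancer lines. A hit is a response shift exceeding 3x replicate standard deviation. The tissue of the other fibroblasts is not given here.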
